Test results from PubChem BioAssay AID256 (DTP/NCI, 2004).
The list does not hold the whole screen: it is rich in T/C values a quarter to a half above the control, in often repeated tests (any T/C) and in doses without a T/C. Other doses and runs of a compound stand elsewhere. T/C is the treated group as % of the vehicle group. Some entries give survivors of the animals treated and no T/C: the source files T/C as zero there, which appears to mark a toxic dose or a test without result, not a measured value. Some doses without a T/C left all or most animals alive at the check, yet need not have been tolerated: survival well below the control is almost never listed, so the zero probably covers shortened survival too. Counts of survivors are from the toxicity check (mostly the fifth day) where no day follows; animals may have died later. Schedule codes are those of the source, read here as Q, the interval in days (D) or hours (H), X, the number of doses. Some molecules as drawn cover several salts, stereoisomers or complexes of the source; a dose is that of the sample tested. Some schedule codes hold Z or #, which are not explained here.

System: CD2F1 mice, L1210 leukemia ip, survival T/C
Assay: NCI In Vivo Anticancer Drug Screen. Data for tumor model L1210 Leukemia (intraperitoneal) in CD2F1 (CDF1) mice
Conditions: higher T/C = longer survival
Outline: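 Mice carrying a transplanted tumor received test compound or vehicle alone. The value is the measurement in the treated group divided by that in the vehicle-treated control group.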

[1] = T/C endpoint: mean survival time, dose: 400.0 mg/kg/injection, schedule: Q01DX009 (ip), vehicle: saline with Tween-80
[2] = T/C endpoint: mean survival time, dose: 200.0 mg/kg/injection, schedule: Q04DX003 (ip), vehicle: saline with Tween-80
[3] = T/C endpoint: mean survival time, dose: 400.0 mg/kg/injection, schedule: Q04DX003 (ip), vehicle: saline with Tween-80
[4] = T/C endpoint: mean survival time, dose: 200.0 mg/kg/injection, schedule: Q01DX009 (ip), vehicle: saline with Tween-80

## c1ccc2[nH]c(CCCCCCCCc3nc4ccccc4[nH]3)nc2c1
[1]
  survivor count: 2 of 6

## c1ccc(-c2nn[nH]n2)nc1
T/C endpoint: mean survival time, dose: 400.0 mg/kg/injection, schedule: Q01DX001 (ip), vehicle: saline
  survivor count: 3 of 3

## C=CC1CN2CCC1CC2C(O)c1ccnc2ccccc12 (stereo not drawn) (tested in a mixture with another compound)
[2]
  survivor count: 5 of 6
T/C endpoint: mean survival time, dose: 400.0 mg/kg/injection, schedule: Q01DX001 (ip), vehicle: saline with Tween-80
  survivor count: 1 of 6
[3]
  survivor count: 5 of 6

## CC[PH+](CC)CC[S-].CC[PH+](CC)CC[S-].[Au+].[Au+]
T/C endpoint: mean survival time, dose: 40.0 mg/kg/injection, schedule: Q01DX009 (ip), vehicle: Klucel (hydroxypropylcellulose) (HPC)
  survivor count: 3 of 6
T/C endpoint: mean survival time, dose: 80.0 mg/kg/injection, schedule: Q01DX009 (ip), vehicle: Klucel (hydroxypropylcellulose) (HPC)
  survivor count: 0 of 6

## CCOC(=O)CN(CC(=O)OCC)c1ccc(C(C)=O)cc1
T/C endpoint: mean survival time, dose: 400.0 mg/kg/injection, schedule: Q04DX003 (ip), vehicle: saline
  survivor count: 0 of 6

## C#CCOC1CCCC1O (stereo not drawn)
T/C endpoint: mean survival time, dose: 200.0 mg/kg/injection, schedule: Q04DX003 (ip), vehicle: acetone
  survivor count: 4 of 6
T/C endpoint: mean survival time, dose: 400.0 mg/kg/injection, schedule: Q04DX003 (ip), vehicle: acetone
  survivor count: 0 of 6

## CC1OC1c1ccc(-c2ccc(C3OC3C)cc2)cc1 (stereo not drawn)
T/C endpoint: mean survival time, dose: 300.0 mg/kg/injection, schedule: Q01DX Z (ip), vehicle: saline
  survivor count: 0 of 6
T/C endpoint: mean survival time, dose: 600.0 mg/kg/injection, schedule: Q01DX Z (ip), vehicle: saline
  survivor count: 0 of 6
T/C endpoint: mean survival time, dose: 1200.0 mg/kg/injection, schedule: Q01DX Z (ip), vehicle: saline
  survivor count: 0 of 6

## c1ccc2c(c1)ccc1c[n+]3ccccc3cc12
T/C endpoint: mean survival time, dose: 2.5 mg/kg/injection, schedule: Q01DX009 (ip), vehicle: saline with Tween-80
  survivor count: 0 of 6
T/C endpoint: mean survival time, dose: 5.0 mg/kg/injection, schedule: Q01DX009 (ip), vehicle: saline with Tween-80
  survivor count: 0 of 6
T/C endpoint: mean survival time, dose: 10.0 mg/kg/injection, schedule: Q04DX003 (ip), vehicle: saline sonified
  survivor count: 0 of 6
T/C endpoint: mean survival time, dose: 20.0 mg/kg/injection, schedule: Q04DX003 (ip), vehicle: saline sonified
  survivor count: 0 of 6

## CCOCc1cc(C)[nH]c(=O)c1C#N
[3]
  survivor count: 2 of 6

## C=CCOc1c(C)cc(C(C)(C)c2cc(C)c(OCC=C)c(C)c2)cc1C
T/C endpoint: mean survival time, dose: 200.0 mg/kg/injection, schedule: Q01DX001 (ip), vehicle: other
  survivor count: 6 of 6

## c1ccc(CNCCNCc2ccccc2)cc1
[4]
  survivor count: 2 of 6
[2]
  survivor count: 0 of 6
[1]
  survivor count: 0 of 6
[3]
  survivor count: 0 of 6

## COc1cc([N+](=O)[O-])ccc1NC(=O)NCc1ccccc1
T/C endpoint: mean survival time, dose: 200.0 mg/kg/injection, schedule: Q04DX002 (ip), vehicle: saline with Tween-80
  survivor count: 6 of 6

## CC1(C)CC2(C)OC2C2(C1)N=NC(=Nc1ccccc1)O2 (stereo not drawn)
T/C endpoint: median survival time, dose: 100.0 mg/kg/injection, schedule: Q01DX009 (ip), vehicle: saline with Tween-80
  survivor count: 3 of 6
T/C endpoint: median survival time, dose: 200.0 mg/kg/injection, schedule: Q01DX009 (ip), vehicle: saline with Tween-80
  survivor count: 3 of 6
T/C endpoint: median survival time, dose: 400.0 mg/kg/injection, schedule: Q01DX009 (ip), vehicle: saline with Tween-80
  survivor count: 0 of 6

## Cc1ccccc1SCCC(=O)O
[4]
  survivor count: 0 of 6
[1]
  survivor count: 0 of 6

## Nc1cc(Cl)c(N)c(N)n1
[1]
  survivor count: 3 of 6

## CCCCCCCCCCCCCCNCCC(=O)O
T/C endpoint: mean survival time, dose: 300.0 mg/kg/injection, schedule: Q01DX001 (ip), vehicle: saline
  survivor count: 0 of 6

## C=CC(=O)NC(C)(C)CC(C)(C)C
[4]
  survivor count: 6 of 6
[1]
  survivor count: 0 of 6
